Test results published in PubChem BioAssay AID2685 (National Center for Advancing Translational Sciences (NCATS), 2010).
Some of the results follow. Further columns of the screen follow, without active or inactive calls. Most of these compounds were active or inconclusive in the main read-out, so they are no random draw. Potencies come from curve fits of mixed quality, noted in brackets.

Assay: qHTS Assay for Lipid Storage Modulators in Drosophila S3 Cells;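 on cell number change: cells counted by Cell Tracker Red CMTPX staining in the red channel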
Details: BODIPY lipid droplet fluorescence, 18-24 h; for cell number change: measured here: cell count max response, cells fed with added oleic acid
How it was run: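 Drosophila S3 cells loaded with oleic acid (400 uM, as added) and compounds at several concentrations; lipid droplets imaged by 488-nm laser-scanning cytometry, 500–530 nm intensity and object ratio to cell channel. Percent activity normalized to 20 uM Triacsin C.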

[1] = measured here: lipid fluorescence (Fed channel) AC50, cells fed with added oleic acid
[2] = measured here: cell number channel AC50, cells fed with added oleic acid

Structure (SMILES) | cell number change [%] | AC50 [1] | AC50 [2]
CCOc1ccc(CCNC(=O)CSCc2ccc(C)cc2)cc1OCC | -18.6 | 9.2 µM [falling, partial curve] | 
C/C(=N\NC(=O)C1COc2ccccc2O1)c1ccc(N2CCOCC2)cc1 (stereo unspecified) | 27.8 | 16.4 µM [rising, partial curve] | 
CCS(=O)(=O)c1nc(S(=O)(=O)c2ccc(Cl)cc2)c(NCCCN2CCOCC2)s1 | 7.03 | 0.0651 µM [rising, full curve, poor fit] | 
CCN(CC)S(=O)(=O)c1ccc(N2CCOCC2)c(NS(=O)(=O)c2ccc(C(C)C)cc2)c1 | 9.67 | 23.1 µM [falling, single point] | 
Cn1ccnc1Sc1ccc(C(N)=O)cc1[N+](=O)[O-] | -3.26 |  | 
N/C(=N\OC(=O)COc1ccc(Br)cc1)c1cccnc1 | 38.3 | 29.1 µM [rising, single point] | 9.2 µM [rising, partial curve]
CCOc1ccccc1NC(=O)Cn1nnc(C(=O)Nc2ccc(C)cc2)c1N |  |  | 0.517 µM [rising, full curve]
COc1cc(Nc2ncnc(N)n2)cc(OC)c1 | -34.4 | 3.66 µM [falling, full curve] | 4.11 µM [falling, full curve, poor fit]
FC(F)(F)c1cccc(Oc2cc(C(F)(F)F)nc(-c3ccccn3)n2)c1 | 6.32 | 6.51 µM [rising, single point] | 
O=C(c1cccs1)N1CCCc2ccccc21 | 1.06 | 0.651 µM [falling, single point] | 
O=C(CSc1nc(=O)[nH]c2c1CCCC2)Nc1cc(C(F)(F)F)cc(C(F)(F)F)c1 | -17.6 |  | 0.13 µM [falling, full curve, poor fit]
CCOc1ccc(NC(=S)NN2C(C)CCCC2C)cc1 (stereo unspecified) | -8.79 | 1.46 µM [falling, partial curve, poor fit] | 
Cc1cccc(C(=O)NC2CCN(CC(=O)N3CCOCC3)CC2)c1 | -8.24 |  | 
O=C(Nc1ccc(F)cc1)NC1(C(=O)NCc2ccco2)CCCCC1 | 1.33 | 0.0058 µM [falling, full curve, poor fit] | 
Cc1cc(C)n2nc(SCc3ccc(C#N)cc3)nc2n1 | 16.2 |  | 
CCSc1nc2c(cnn2-c2ccc(C)c(C)c2)c(=O)[nH]1 | 2.04 | 0.82 µM [falling, full curve] | 
O=C(c1ccco1)N1CCN(c2nnc(-c3ccccc3)c3ccccc23)CC1 |  |  | 2.59 µM [rising, partial curve]
CSc1nc(N(C)NC(=O)c2cccc(C)c2)c2ccccc2n1 | -20.2 | 0.164 µM [falling, full curve] | 
O=C(O)/C=C/C(=O)c1ccc2c(c1)NC(=O)CO2 | 6.4 |  | 
COc1cc(NC(=O)C2CSC3(C)CCC(=O)N23)c(OC)cc1Cl (stereo unspecified) | 20.1 |  | 

Structure (SMILES) | cell number change [%] | AC50 [1] | AC50 [2]
NS(=O)(=O)c1ccc(N/N=C/c2cn(-c3ccccc3)nc2-c2cccs2)c([N+](=O)[O-])c1 | 31.7 |  | 
CCOC(=O)c1sc2nc(CN3CCCCC3)nc(Cl)c2c1C | 31.3 |  | 4.11 µM [rising, full curve, poor fit]
O=C(c1cc(COc2ccccc2)on1)N1CCCC(OCc2cccnc2)C1 (stereo unspecified) |  | 0.82 µM [falling, full curve] | 
CCN(CC)S(=O)(=O)c1cccc2cc(C(=O)O)c(O)cc12 | -0.512 | 0.206 µM [falling, full curve, poor fit] | 
CC(=O)NC(C)C12CC3CC(CC(C(=O)O)(C3)C1)C2 (stereo unspecified) | -18.3 | 0.731 µM [falling, single point] | 
COc1cc(OC)cc(C(=O)Nc2nnc(NC(=S)Nc3ccccc3)s2)c1 | 2.57 | 3.26 µM [rising, single point] | 6.51 µM [rising, single point]
O=C(COc1ccccc1Cl)Nc1ccc(NC(=O)c2ccco2)cc1 | 6.05 |  | 
CCOC(=O)C(=CNc1ccccc1N1CCOCC1)C(=O)OCC | 8.72 | 6.51 µM [rising, single point] | 
COc1ccc(/C=N/NC(=O)C(=O)N2CCCCCC2)cc1 | -27.6 |  | 
CC(C)OCCCn1c(SCC(=O)N2CCc3ccccc32)nc2ccccc2c1=O | -30.5 | 2.06 µM [falling, partial curve] | 29.1 µM [falling, partial curve, poor fit]
COc1ccc(S(=O)(=O)N2CCOCC2)cc1NC(=O)Cc1cccs1 | 8.31 | 23.1 µM [rising, single point] | 
O=S(=O)(c1ccccc1)N(Cc1ccc(Cl)cc1)c1ccncc1 | 9.4 |  | 
CC(C)(OC(=O)c1ccc(C#N)cc1)c1cc2ccccc2c(=O)o1 | 6.47 | 0.13 µM [falling, partial curve, poor fit] | 0.13 µM [falling, full curve, poor fit]
O=C(O)CCn1ccnc1-c1ccccc1 | -31.6 | 3.66 µM [falling, full curve] | 3.66 µM [falling, full curve]
Cc1cc(C)c(C(=O)COC(=O)c2nn(C)c(=O)c3ccccc23)cc1C | -2.55 | 2.59 µM [rising, partial curve, poor fit] | 2.31 µM [rising, partial curve]
CC1CCC2(CC1)NC(=O)N(CC(=O)N1CCN(S(=O)(=O)c3ccccc3)CC1)C2=O (stereo unspecified) | 25 | 0.116 µM [rising, full curve] | 
CNC(=O)Cn1c(=O)n(C)c2ccccc21 | -26.7 | 18.4 µM [falling, single point] | 
O=C1Nc2ccccc2C1=Nc1ccc(Br)cc1 | 15.2 |  | 
CCOC(=O)c1cc2c(ccn2C)n1CC(=O)N(C)C | -11.4 |  | 
COc1ccc(CCN2CCC(Nc3nc4ccccc4n3Cc3ccc(F)cc3)CC2)cc1 | -79 | 25.9 µM [falling, single point] | 18.4 µM [falling, single point]

4 compounds already listed, sorted by molar mass, smallest number first.
Structure (SMILES) | cell number change [%] | AC50 [1] | AC50 [2]
CC(=O)NC(C)C12CC3CC(CC(C(=O)O)(C3)C1)C2 (stereo unspecified) | -18.3 | 0.731 µM [falling, single point] | 
CC(C)(OC(=O)c1ccc(C#N)cc1)c1cc2ccccc2c(=O)o1 | 6.47 | 0.13 µM [falling, partial curve, poor fit] | 0.13 µM [falling, full curve, poor fit]
CCOC(=O)c1sc2nc(CN3CCCCC3)nc(Cl)c2c1C | 31.3 |  | 4.11 µM [rising, full curve, poor fit]
CC1CCC2(CC1)NC(=O)N(CC(=O)N1CCN(S(=O)(=O)c3ccccc3)CC1)C2=O (stereo unspecified) | 25 | 0.116 µM [rising, full curve] | 

(more compounds)

Structure (SMILES) | cell number change [%] | AC50 [1] | AC50 [2]
COc1ccc(NC(=O)CSc2nc3ccccc3n2-c2ccccc2)c([N+](=O)[O-])c1 | 9.52 |  | 6.51 µM [rising, single point]
Cc1ccc2c(CC(=O)N(C)c3c(N)n(Cc4ccccc4)c(=O)[nH]c3=O)coc2c1 | -15.5 | 16.4 µM [falling, partial curve] | 
O=C(COc1ccccc1)NC(=S)Nc1cccc([N+](=O)[O-])c1 | 1.92 |  | 
C[C@@H]([C@@H](O)c1ccccc1)N(C)C(=O)C(N)Cc1ccccc1 (stereo partly specified) | 1.8 | 11.6 µM [rising, single point] | 
Cc1ccc(C2CC(c3ccccc3Cl)n3nc(N)nc3N2)cc1 (stereo unspecified) | 8.66 |  | 
Cc1cc(NC(=O)c2ccccc2C)ccc1NC(=O)c1ccccc1Cl | 7.66 | 2.59 µM [rising, full curve] | 
O=C(NCCNS(=O)(=O)c1ccccc1Cl)c1cc(OCC(F)(F)F)ccc1OCC(F)(F)F | -29.5 | 29.1 µM [falling, single point] | 
CCN(CC(=O)NCc1cccs1)C(=O)c1cccc(S(=O)(=O)Nc2cccc(C)c2)c1 | 3.07 | 25.9 µM [falling, partial curve, poor fit] | 
CN(C)C(=O)c1ccc(NC(=O)c2cccc(S(=O)(=O)N3CCCCCC3)c2)cc1 | 11.9 | 32.6 µM [rising, single point] | 
CNC(=O)CC1C(=O)N(C)C(=S)N1NC(=O)c1ccc(Cl)cc1 (stereo unspecified) | 23 | 1.46 µM [falling, full curve] | 0.13 µM [falling, full curve]
O=C(CSc1nnnn1-c1ccccc1)Nc1ncc2c(n1)CC(c1ccccc1)CC2=O (stereo unspecified) |  | 2.06 µM [rising, partial curve] | 1.3 µM [rising, partial curve]
CCc1ccc(C(=O)c2cn(CC(=O)Nc3cccc(OC)c3)c3ccc(OC)cc3c2=O)cc1 | 36.9 | 25.9 µM [rising, partial curve, poor fit] | 11.6 µM [rising, single point]
Cc1ccc(S(=O)(=O)C(C#N)c2nc3ccccc3nc2N2CCC(C)CC2)cc1 (stereo unspecified) | -6.38 | 6.51 µM [rising, single point] | 
COc1cc(/C=N/NC(=O)COc2c(C)cc([N+](=O)[O-])cc2C)ccc1OC(=O)c1ccccc1Br | -4.82 | 11.6 µM [rising, partial curve, poor fit] | 6.51 µM [rising, single point]
COc1ccc(NC(=O)CSc2nc3[nH]c(=O)cc(O)c3s2)c(OC)c1 | -14.2 |  | 0.164 µM [falling, full curve, poor fit]
CCC1Oc2ccccc2N(CC(=O)NC2CCCC2)C1=O (stereo unspecified) | 6.85 | 16.4 µM [rising, partial curve] | 
O=C(CCCNS(=O)(=O)c1ccccc1)NCc1ccco1 | -179 | 23.1 µM [falling, partial curve] | 25.9 µM [falling, partial curve]
COCCn1c(SCC(=O)OCc2ccccc2)nc2c1c(=O)[nH]c(=O)n2C | -113 | 29.1 µM [falling, single point] | 29.1 µM [falling, single point]
Nc1cc(N)nc(SCC(=O)c2ccc3c(c2)NC(=O)CO3)n1 | 24.3 |  | 
Cc1cc(C)cc(C(=O)N2CCN=C2c2ccccc2)c1 | 17.2 | 0.00461 µM [rising, full curve, poor fit] | 
